The source of these data is patent US20160138081.

The exact form of at least one protein or probe is not confirmed. Where cells or extracts were used, other partners may take part. Negatives hold for the conditions tested. Protein sequences can lack the tags named with them.

This series has as its target T1, 3×FNLDD (bacterial LexA fusion) (UniProt P0A7C2).
T1 sequence (looked up, limits assumed): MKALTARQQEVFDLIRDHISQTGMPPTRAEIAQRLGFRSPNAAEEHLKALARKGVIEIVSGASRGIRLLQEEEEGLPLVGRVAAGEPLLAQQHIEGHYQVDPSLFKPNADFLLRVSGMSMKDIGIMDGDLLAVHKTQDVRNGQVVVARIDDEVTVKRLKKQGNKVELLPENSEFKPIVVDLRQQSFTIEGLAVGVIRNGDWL
In words: pull-down. Particulars: negative control; anti-FLAG ChIP from crosslinked Ba/F3 cells, Southern blot; protein in cells; protein details: 3×FLAG, NLS.

“TAGGGTTAGGGTTAGGGTT (double strand) [telomeric TTAGGG repeat]”: the binding result is reported as “no binding”.
